This is one part of the list.
Biological target: T1, OsSMF1 (Oryza sativa, UniProt Q6ZLB0 1-436)
T1 sequence: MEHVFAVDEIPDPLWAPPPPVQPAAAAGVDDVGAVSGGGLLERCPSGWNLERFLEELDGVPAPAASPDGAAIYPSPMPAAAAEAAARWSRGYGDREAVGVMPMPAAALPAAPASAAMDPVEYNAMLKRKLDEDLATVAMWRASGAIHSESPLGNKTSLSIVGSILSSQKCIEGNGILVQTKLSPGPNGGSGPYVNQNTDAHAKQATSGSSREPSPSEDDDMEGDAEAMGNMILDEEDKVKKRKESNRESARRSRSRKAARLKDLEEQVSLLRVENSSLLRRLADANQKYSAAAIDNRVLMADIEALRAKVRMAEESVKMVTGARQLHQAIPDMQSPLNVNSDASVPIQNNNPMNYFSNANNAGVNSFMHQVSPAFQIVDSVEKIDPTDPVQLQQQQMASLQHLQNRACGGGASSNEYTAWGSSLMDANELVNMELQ
Test: protein-binding microarray (RPBM); PBS, 2% BSA, 51.3 ng/ul salmon testes DNA, 50 uM zinc acetate, 200 nM TF, 25 C, 1 h; high values mean tight binding
Conditions: protein: recombinant; tags: N-terminal polyhistidine and DsRed monomer fusion (pET32a); chain copies: 2; label: CyDye5-dUTP incorporated in the synthesized complementary strand; 3' TTTTT single-stranded linker to array surface; dsDNA, one strand shown
Summary of the method: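 Transcription factors were each fused at the N-terminus to a polyhistidine tag plus DsRed and expressed in E. coli BL21-CodonPlus before Ni–NTA purification. Binding to a double-stranded custom Agilent array was carried out with 200 nM protein at 25 °C for 1 h in PBS, 2% BSA, salmon testes DNA and 50 µM zinc acetate. The binding signal is per-feature fluorescence intensity, in arbitrary units, on an Axon 4000B scanner.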

Row | Sequence | binding signal
1 | TATTAGCGTGTGCTATCCACGTGGCAGCCGACGATAAGGTCGGAGTCACCTAGTGCAG | 10600 fluorescence intensity (a.u.)
2 | CACCTCACTCCGCTAGCGCCGCTCTCCCTCCTCACGTCACCGGAGTCACCTAGTGCAG | 4410 fluorescence intensity (a.u.)
3 | CATGTCTGGACCTGGAGGAGGAGGTCATGGCCTCTACGAGCGGAGTCACCTAGTGCAG | 33900 fluorescence intensity (a.u.)
4 | CATTGTAATCGTTCGATATGATTGTCGATGAACTACATGCCGGAGTCACCTAGTGCAG | 3320 fluorescence intensity (a.u.)
5 | TTTTCAGTGCTCTGCATCACACCATCTGTCATGTCAAGATCGGAGTCACCTAGTGCAG | 3530 fluorescence intensity (a.u.)
6 | TTGGAGGGGAAGCTATCGTGTATCCACTGCGGAGCACGGCCGGAGTCACCTAGTGCAG | 3650 fluorescence intensity (a.u.)
7 | CCTTCCCTTCTTTAGCGCGGCCACGTCGCGGCGCCTCGCGCGGAGTCACCTAGTGCAG | 6500 fluorescence intensity (a.u.)
8 | CCTCCCCAACCACCCGCTGTGTCATCTGCGACCTCAATTTCGGAGTCACCTAGTGCAG | 4520 fluorescence intensity (a.u.)
9 | GAAATGGATATGGCGTGGAGTGTTTCATTGCTAGTAGGAGCGGAGTCACCTAGTGCAG | 3680 fluorescence intensity (a.u.)
10 | AGGGGTGAGAATGACACGTGGGGCCATATGTCGGTGGGTCCGGAGTCACCTAGTGCAG | 6160 fluorescence intensity (a.u.)
11 | CATCACACCACACCACACACCGGCCAGCTCAGGAATAGGGCGGAGTCACCTAGTGCAG | 3440 fluorescence intensity (a.u.)
12 | GTATTGTGTCCGGTTTTAACGCCTACGTGGCTTCTTTTGACGGAGTCACCTAGTGCAG | 18800 fluorescence intensity (a.u.)
13 | CTATTATCATACTCTTTAGTGTGCACGTGTGCTTTATCTCCGGAGTCACCTAGTGCAG | 5500 fluorescence intensity (a.u.)
14 | CCCACACACCAGGTTCTTGAGAGGGAGATGATGTGTCAATCGGAGTCACCTAGTGCAG | 6850 fluorescence intensity (a.u.)
15 | GCCTATGTCCAGATTTATTCTACTAGAATGTGTCATATCCCGGAGTCACCTAGTGCAG | 3470 fluorescence intensity (a.u.)
16 | CTCTATCTATTCTATTAGAATGCGTCATATCTATATGAAACGGAGTCACCTAGTGCAG | 3740 fluorescence intensity (a.u.)
17 | AGTCGTGTACTCGTGTACTACCAGCAATCTGAAATCTGAACGGAGTCACCTAGTGCAG | 7600 fluorescence intensity (a.u.)
18 | TAGATTTGGTCCAGATGGTGCTGATCTGTCGGATTTTGTACGGAGTCACCTAGTGCAG | 4540 fluorescence intensity (a.u.)
19 | ATAGGAAGACTTCGACATTTTCAAACACTTGAGGACAACTCGGAGTCACCTAGTGCAG | 32600 fluorescence intensity (a.u.)
20 | TGGAAGTGCAAGCATACCGATCCACGTTCACTTATCAGCCCGGAGTCACCTAGTGCAG | 3430 fluorescence intensity (a.u.)
21 | CTTTCTCCGTTTCTTCCATCTCCGTCAACCTACCGGCGTACGGAGTCACCTAGTGCAG | 3890 fluorescence intensity (a.u.)

Row | Sequence | binding signal
22 | AGGCAGGAAGGTACGCAGCCAGGGGTTGTTACGTGGAATACGGAGTCACCTAGTGCAG | 3220 fluorescence intensity (a.u.)
23 | TAGCGGCAGCTAAGCACACGTGTAGGATCGCCAGGCGCGCCGGAGTCACCTAGTGCAG | 4880 fluorescence intensity (a.u.)
24 | CGATGGCGTCCTCGGCCTTGGGGAGCAGCAACAGCAGCGACGGAGTCACCTAGTGCAG | 3770 fluorescence intensity (a.u.)
25 | ATTGGATCCGGGGAGGAGGAGGTGGGGTTCGGTTTCGTGCCGGAGTCACCTAGTGCAG | 3820 fluorescence intensity (a.u.)
26 | CCCCTGATAATTGCGTCGTTGTACCATGGCTGTGAGGGCTCGGAGTCACCTAGTGCAG | 3410 fluorescence intensity (a.u.)
27 | AAAGCTCAACATGCATTGAGACACATCACCCTTTAAAACTCGGAGTCACCTAGTGCAG | 4160 fluorescence intensity (a.u.)
28 | ACTTCTGTTTTACCGAAATAACATATTACGTAGAGATTTTCGGAGTCACCTAGTGCAG | 16800 fluorescence intensity (a.u.)
29 | ATCCCCTTCCCACTCCTCGGTGACGCTGCAACCACCTTTCCGGAGTCACCTAGTGCAG | 6940 fluorescence intensity (a.u.)
30 | CCTGAAAGATGCATGTTGACTAGCCTTGATGACTACCAGACGGAGTCACCTAGTGCAG | 4300 fluorescence intensity (a.u.)
31 | TAATTTGGCCTGGTTATTTGGATGCATCGAAGAGTCCACGCGGAGTCACCTAGTGCAG | 3340 fluorescence intensity (a.u.)
32 | CTATAGCACAACGACCTTATTCTATCTCTCGTCAACGCTTCGGAGTCACCTAGTGCAG | 13500 fluorescence intensity (a.u.)
33 | TTCCCTAGACTGTTTTGGGTGTCACTGGTTTGGCGGTTACCGGAGTCACCTAGTGCAG | 3760 fluorescence intensity (a.u.)
34 | TAGTTATAAAGCACTGTAATTTTAGTTATAAATACAACATCGGAGTCACCTAGTGCAG | 3260 fluorescence intensity (a.u.)
35 | CGTAGCTACGACTTCGAGAAATGACATGTCATCGGTGCCTCGGAGTCACCTAGTGCAG | 13300 fluorescence intensity (a.u.)
36 | TTTAATTTTAACGTTAACTAAACACACCCTTAGTACTGGACGGAGTCACCTAGTGCAG | 3990 fluorescence intensity (a.u.)
37 | GAAACCACCGCCATGCCGCCCTTTTGCTGCCCACGTCGCCCGGAGTCACCTAGTGCAG | 3780 fluorescence intensity (a.u.)
38 | TTATACCCATACGTGTTCCCTTTTCCAAGTAGAACTAGGGCGGAGTCACCTAGTGCAG | 5120 fluorescence intensity (a.u.)
39 | GGAACCGAGAGAACGACCTGCTCGACGCGTGGACTCGGCGCGGAGTCACCTAGTGCAG | 4990 fluorescence intensity (a.u.)
40 | TCATCTCCCCATCTCATTGGCAGCGGCTGCCGGATAAAATCGGAGTCACCTAGTGCAG | 3560 fluorescence intensity (a.u.)
41 | CACAAAATGCATATGATGTGTCAATTGTTCTTAATTTGACCGGAGTCACCTAGTGCAG | 4720 fluorescence intensity (a.u.)
42 | GATTCTAATGGATGAATTGATGGTGTGGCGTATGTGATAGCGGAGTCACCTAGTGCAG | 3980 fluorescence intensity (a.u.)

Individual results from the entries so far.
Value for CACAAAATGCATATGATGTGTCAATTGTTCTTAATTTGACCGGAGTCACCTAGTGCAG under binding signal: 4720 fluorescence intensity (a.u.)
Value for TTGGAGGGGAAGCTATCGTGTATCCACTGCGGAGCACGGCCGGAGTCACCTAGTGCAG under binding signal: 3650 fluorescence intensity (a.u.)

— PMC7819943, “Rice protein-binding microarrays: a tool to detect cis-acting elements near promoter regions in rice”
